Data published in PMC10441791.
No constants are given. Whether binding was seen depends on the method and setting. In cells and extracts the contact can be indirect. Some binding calls cover weakened binding; strength is not graded here.

Chains of the proteins cited; added tags and fusions are not shown.
UniProt P15682: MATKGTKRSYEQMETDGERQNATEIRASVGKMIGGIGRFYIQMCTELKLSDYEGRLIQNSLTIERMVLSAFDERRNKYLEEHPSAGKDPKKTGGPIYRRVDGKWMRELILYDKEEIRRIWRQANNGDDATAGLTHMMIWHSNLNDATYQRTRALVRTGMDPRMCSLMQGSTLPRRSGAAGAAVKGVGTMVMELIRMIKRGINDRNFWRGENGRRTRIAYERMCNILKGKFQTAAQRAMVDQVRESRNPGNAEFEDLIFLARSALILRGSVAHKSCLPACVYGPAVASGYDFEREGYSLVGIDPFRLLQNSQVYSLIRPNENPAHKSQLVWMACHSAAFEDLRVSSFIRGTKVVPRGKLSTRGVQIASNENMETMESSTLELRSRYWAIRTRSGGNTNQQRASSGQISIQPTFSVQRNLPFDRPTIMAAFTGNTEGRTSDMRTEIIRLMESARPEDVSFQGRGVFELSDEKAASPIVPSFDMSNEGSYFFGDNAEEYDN
UniProt P03430: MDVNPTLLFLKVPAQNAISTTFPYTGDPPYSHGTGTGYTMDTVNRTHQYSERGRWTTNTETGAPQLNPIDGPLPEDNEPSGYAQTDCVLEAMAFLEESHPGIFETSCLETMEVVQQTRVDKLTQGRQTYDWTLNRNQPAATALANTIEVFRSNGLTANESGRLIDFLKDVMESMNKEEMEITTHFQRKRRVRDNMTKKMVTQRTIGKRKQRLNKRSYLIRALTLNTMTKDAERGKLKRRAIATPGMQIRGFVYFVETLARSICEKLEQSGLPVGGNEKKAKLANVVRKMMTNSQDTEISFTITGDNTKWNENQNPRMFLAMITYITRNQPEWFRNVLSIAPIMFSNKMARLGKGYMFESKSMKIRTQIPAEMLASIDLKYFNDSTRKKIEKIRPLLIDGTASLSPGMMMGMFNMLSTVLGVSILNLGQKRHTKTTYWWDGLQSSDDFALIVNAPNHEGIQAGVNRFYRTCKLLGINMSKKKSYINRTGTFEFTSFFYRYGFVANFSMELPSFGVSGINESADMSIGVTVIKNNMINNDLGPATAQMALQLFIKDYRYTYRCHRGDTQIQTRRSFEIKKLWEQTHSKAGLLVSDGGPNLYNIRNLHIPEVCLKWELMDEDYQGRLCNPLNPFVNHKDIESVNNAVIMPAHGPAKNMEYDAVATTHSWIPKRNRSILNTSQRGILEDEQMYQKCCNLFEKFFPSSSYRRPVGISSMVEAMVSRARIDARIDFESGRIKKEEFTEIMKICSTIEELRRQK
UniProt P03427: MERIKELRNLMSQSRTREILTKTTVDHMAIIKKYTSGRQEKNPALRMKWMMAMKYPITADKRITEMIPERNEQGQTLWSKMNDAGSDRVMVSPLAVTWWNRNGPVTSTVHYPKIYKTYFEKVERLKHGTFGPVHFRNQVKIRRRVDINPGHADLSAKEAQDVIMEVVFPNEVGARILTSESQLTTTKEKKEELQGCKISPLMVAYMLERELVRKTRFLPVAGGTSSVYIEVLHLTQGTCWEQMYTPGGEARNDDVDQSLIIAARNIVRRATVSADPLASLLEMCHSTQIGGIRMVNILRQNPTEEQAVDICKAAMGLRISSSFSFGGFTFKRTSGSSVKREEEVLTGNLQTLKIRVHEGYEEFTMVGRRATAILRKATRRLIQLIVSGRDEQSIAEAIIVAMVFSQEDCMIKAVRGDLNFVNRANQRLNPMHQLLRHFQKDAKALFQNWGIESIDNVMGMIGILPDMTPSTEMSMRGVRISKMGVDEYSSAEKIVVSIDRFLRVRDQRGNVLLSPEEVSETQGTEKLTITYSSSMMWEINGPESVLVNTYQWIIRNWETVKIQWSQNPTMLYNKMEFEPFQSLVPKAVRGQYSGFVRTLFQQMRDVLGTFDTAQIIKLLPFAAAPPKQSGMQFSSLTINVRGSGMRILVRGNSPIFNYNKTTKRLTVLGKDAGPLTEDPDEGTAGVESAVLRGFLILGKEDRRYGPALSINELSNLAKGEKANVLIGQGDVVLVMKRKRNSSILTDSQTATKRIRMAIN

Molecular target: Myc-NP (nucleoprotein of influenza A/WSN/1933) (influenza A virus A/WSN/1933 (H1N1)) (UniProt P15682)
Experiment: co-IP

Row | Substance | binding
1 | FLAG-PB1 (polymerase basic 1 of influenza A/WSN/1933) (from UniProt P03430 1-757) | binds
2 | FLAG-PB2 (polymerase basic 2 of influenza A/WSN/1933) (from UniProt P03427 1-759) | binds
